Results of single-concentration screens

Source: ChEMBL document CHEMBL3988442, “University of Dundee, Small-Polar-MMV Screening Library” (2021).

Mtb glucose medium: 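Whole-cell growth test on Mycobacterium tuberculosis, read after 3 days in glucose-containing 7H9 medium; the read-out is not stated. Tested at 50 µM. Higher reads as more growth inhibition (inferred: compounds with an IC50 in retests scored well above the rest). Of about 69,000 compounds tested this way, about 760 (1.1%) reached 50% or more in at least one test.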
Mtb cholesterol medium: 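Phenotypic screen: M. tuberculosis growth, cholesterol and DPPC medium, 4 days; the read-out is not stated. Concentration: 50 µM. Direction is inferred from retests: higher values go with more growth inhibition. Of about 69,000 compounds tested this way, about 370 (0.54%) reached 50% or more in at least one test.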

Each number is a percent effect as filed. How 0% and 100% were set is not recorded. Most values in the screen are low, and negative values occur. This is an unselected part of the compounds tested. Two or more numbers in one place are separate tests of the same structure; such repeats can differ widely.

- [H][C@@]12C[C@H](C(=O)NCc3cccnc3)[C@@]([H])(CN(CC(C)C)C1)O2 : Mtb glucose medium: 1.75% & -4.021%; Mtb cholesterol medium: -1.313%
- O=C(N[C@@H]1CCC[C@@H](N2CCOCC2)[C@@H]1O)c1cnn2cccnc12 : Mtb glucose medium: 2.168%; Mtb cholesterol medium: -13.53%
- N#Cc1ccnc(N2CCN(CC(O)c3c(F)cccc3F)CC2)c1 (stereo not drawn) : Mtb glucose medium: -25.17%; Mtb cholesterol medium: -27.87%
- CN(C(=O)CN1CCc2nn(C)c(=O)cc2C1)c1nccs1 : Mtb glucose medium: -10.32% & -8.02%; Mtb cholesterol medium: -3.394%
- Cc1sc(CN)nc1-c1ccc(Cl)cc1.Cl : Mtb glucose medium: -6.07%; Mtb cholesterol medium: -6.608%
- Cc1nc(CC(=O)N2CCCC(N(C)Cc3ccccc3)C2)cs1 (stereo not drawn) : Mtb glucose medium: -3.06%; Mtb cholesterol medium: -2.082%
- FC(F)(F)c1ccc(-c2n[nH]c3c2CN(CC2CCOC2)CC3)cc1 (stereo not drawn) : Mtb glucose medium: 6.625%; Mtb cholesterol medium: -0.406%
- c1csc(N2CCCN(c3ncnc4sccc34)CC2)n1 : Mtb glucose medium: 36.25%; Mtb cholesterol medium: 21.11%
- Cc1cc(CN2CCN(C(=O)NC(C)Cn3cccn3)CC2)no1 (stereo not drawn) : Mtb glucose medium: 27.01%; Mtb cholesterol medium: -11.3%
- Cc1ccccc1C(C(=O)NCCSC(F)(F)F)N(C)C (stereo not drawn) : Mtb glucose medium: 7.367% & 5.215%; Mtb cholesterol medium: -1.574%
- Clc1cc(Cl)cc(OCCN2CCC(n3cncn3)CC2)c1 : Mtb glucose medium: 29.84%; Mtb cholesterol medium: 12.33%
- Cc1noc(C)c1C(=O)N1CCCC1c1c(C)nn(C)c1C (stereo not drawn) : Mtb glucose medium: -6.15%; Mtb cholesterol medium: 1.661%
- CN(C)CC(=O)N1CCc2sc(C(=O)NCC3CC3)cc21.O=C(O)C(F)(F)F : Mtb glucose medium: 24.04%; Mtb cholesterol medium: 3.801%
- O=C(CC1CC1)N1CCC2(CCCN(c3ncccn3)C2)CC1 : Mtb glucose medium: -7.021%; Mtb cholesterol medium: -28.01% & -17.54%
- Cc1ccccc1CN1CCNC(=O)C1CC(=O)NCC1CCCCC1 (stereo not drawn) : Mtb glucose medium: 19.51%; Mtb cholesterol medium: 3.778% & 5.288%
- CCc1cccnc1NCc1cnc(N2CCOCC2)nc1 : Mtb glucose medium: -14.38%; Mtb cholesterol medium: -6.571%
- CCOc1ccc(Cl)c(C(=O)NCCc2ncc[nH]2)n1 : Mtb glucose medium: 13.51%; Mtb cholesterol medium: 2.305%
- CNC(=O)c1ccc(NC(=O)NC(C)CCc2cccn2C)c(C)c1 (stereo not drawn) : Mtb glucose medium: 30.1%; Mtb cholesterol medium: -5.247% & 16.92%
- COCCNC(=O)N1CCCC1COc1ccccc1 (stereo not drawn) : Mtb glucose medium: -8.121% & 21.67%; Mtb cholesterol medium: 23.15%
- CC(C)CN1CCC2(CCN(CC3CC3)CC2)C1=O.O=C(O)C(F)(F)F : Mtb glucose medium: 2.125% & -31.79%; Mtb cholesterol medium: 4.333%
- COCC(=O)N1CCC2(CC1)CC(OC)CO2 (stereo not drawn) : Mtb glucose medium: -1.796% & 1.445%; Mtb cholesterol medium: 17.35%
- Cc1noc(C)c1C(=O)N1CCC(n2cccn2)CC1 : Mtb glucose medium: -8.768%; Mtb cholesterol medium: -14.3%
- CCS(=O)(=O)N1CCc2c(COC)cncc2C1 : Mtb glucose medium: -39.72%; Mtb cholesterol medium: -5.29%
- CCN1CCC(CNC(=O)c2cc(Cl)c[nH]2)CC1 : Mtb glucose medium: -3.864%; Mtb cholesterol medium: -16.08%
- CC(C)CCCC1CN(C(=O)c2cnc[nH]2)CCO1 (stereo not drawn) : Mtb glucose medium: 58.44% & 5.82%; Mtb cholesterol medium: 11.95%
- Cc1nn(C)c(N(C)C)c1CNCc1cccnc1N(C)C : Mtb glucose medium: -9.02%; Mtb cholesterol medium: -12.63%
- CC1CCCCN1C(=O)Cn1cc(I)cn1 (stereo not drawn) : Mtb glucose medium: -9.013% & 0.8093%; Mtb cholesterol medium: -0.1051%
- Cc1nc2c(c(NCc3ccc(-c4ccccn4)s3)n1)CCNCC2 : Mtb glucose medium: 5.268%; Mtb cholesterol medium: 0.04888%
- Cc1ccc(CSc2nc(N)cc(NCCS(=O)(=O)N(C)C)n2)cc1 : Mtb glucose medium: 21.72% & 10.15%; Mtb cholesterol medium: 3.514%
- CCn1cc2c(n1)C(COC)CN(c1ccc(C)nn1)C2.O=C(O)C(F)(F)F.O=C(O)C(F)(F)F (stereo not drawn) : Mtb glucose medium: 17.82% & 2.811%; Mtb cholesterol medium: 12.93%
- CC(C)N(Cc1ccccn1)C(=O)CCC(=O)c1ccccc1 : Mtb glucose medium: 4.518%; Mtb cholesterol medium: -2.791%
- CC(C)(C)C(=O)N[C@H]1C[C@@H](Cc2cc(CN3CCOCC3)on2)C1(C)C : Mtb glucose medium: 7.27% & -2.84%; Mtb cholesterol medium: 14.82%
- Fc1cnc(N2CC[C@@H](N3CCOCC3)[C@@H]2Cc2cccnc2)nc1.O=C(O)C(F)(F)F.O=C(O)C(F)(F)F : Mtb glucose medium: -57.45% & -8.684%; Mtb cholesterol medium: -26.06%
- O=C(O)C(F)(F)F.O=C(O)C(F)(F)F.[H][C@]12C[C@H](CN(C)C)O[C@@]1([H])CN(Cc1ccoc1)C2 : Mtb glucose medium: -1.47%; Mtb cholesterol medium: 2.701%
- CSc1ccccc1CN1CCn2nc(CNC(=O)N(C)C)cc2C1 : Mtb glucose medium: -6.156%; Mtb cholesterol medium: -8.039%
- O=C(NCc1nncn1C1CC1)c1ccccc1OCC1CC1 : Mtb glucose medium: -5.327%; Mtb cholesterol medium: -8.532%
- CC1=Nc2c(c(=O)[nH]n2C(C)C)C(c2ccc3ncccc3c2)S1 (stereo not drawn) : Mtb glucose medium: 19.81%; Mtb cholesterol medium: -10.63%

Repeated from the top, 3 entries:

| compound | Mtb glucose medium | Mtb cholesterol medium |
|---|---|---|
| `[H][C@@]12C[C@H](C(=O)NCc3cccnc3)[C@@]([H])(CN(CC(C)C)C1)O2` | 1.75% & -4.021% | -1.313% |
| `O=C(N[C@@H]1CCC[C@@H](N2CCOCC2)[C@@H]1O)c1cnn2cccnc12` | 2.168% | -13.53% |
| `N#Cc1ccnc(N2CCN(CC(O)c3c(F)cccc3F)CC2)c1` (stereo not drawn) | -25.17% | -27.87% |